Measurements as given in article PMC7862700.
The entries are a selection whose mix differs from that of the whole data set. At the low end of the ranking the order means little.

The chains behind the UniProt entries cited, without tags or fusion partners. Where a name states a change or a piece, a line headed by the entry shows the natural chain unless it says otherwise.
UniProt P32519: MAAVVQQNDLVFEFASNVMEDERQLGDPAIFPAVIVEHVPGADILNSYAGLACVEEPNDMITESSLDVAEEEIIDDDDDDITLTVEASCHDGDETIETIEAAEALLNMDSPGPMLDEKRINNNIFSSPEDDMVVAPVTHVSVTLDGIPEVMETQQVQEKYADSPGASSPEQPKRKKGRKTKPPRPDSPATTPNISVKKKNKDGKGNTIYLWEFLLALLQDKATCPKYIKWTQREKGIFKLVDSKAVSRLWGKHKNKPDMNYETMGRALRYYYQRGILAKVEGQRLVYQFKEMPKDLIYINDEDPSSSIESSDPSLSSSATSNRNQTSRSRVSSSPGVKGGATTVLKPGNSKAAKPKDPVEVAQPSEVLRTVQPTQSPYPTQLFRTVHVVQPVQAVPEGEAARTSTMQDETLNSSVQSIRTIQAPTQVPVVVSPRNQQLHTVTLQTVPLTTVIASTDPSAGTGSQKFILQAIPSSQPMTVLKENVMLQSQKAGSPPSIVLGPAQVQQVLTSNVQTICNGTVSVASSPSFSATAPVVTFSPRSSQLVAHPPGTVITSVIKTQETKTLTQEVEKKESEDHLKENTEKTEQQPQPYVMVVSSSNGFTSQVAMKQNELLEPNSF

These sequences were tested against T1, ERG (UniProt P11308) (assay: DAPPL (digital affinity profiling via proximity ligation, sequencing)). Conditions: 10 mM Tris-HCl pH 7.5, 50 mM NaCl, 1 mM DTT, 4% glycerol, room temperature, 30 min; GST-TFs on glutathione beads, 16-mer random dsDNA library, 0.1% …; high values mean tight binding; double strand, one strand shown; scale: fold enrichment (6-mer frequency, TF over GST control).
T1 sequence: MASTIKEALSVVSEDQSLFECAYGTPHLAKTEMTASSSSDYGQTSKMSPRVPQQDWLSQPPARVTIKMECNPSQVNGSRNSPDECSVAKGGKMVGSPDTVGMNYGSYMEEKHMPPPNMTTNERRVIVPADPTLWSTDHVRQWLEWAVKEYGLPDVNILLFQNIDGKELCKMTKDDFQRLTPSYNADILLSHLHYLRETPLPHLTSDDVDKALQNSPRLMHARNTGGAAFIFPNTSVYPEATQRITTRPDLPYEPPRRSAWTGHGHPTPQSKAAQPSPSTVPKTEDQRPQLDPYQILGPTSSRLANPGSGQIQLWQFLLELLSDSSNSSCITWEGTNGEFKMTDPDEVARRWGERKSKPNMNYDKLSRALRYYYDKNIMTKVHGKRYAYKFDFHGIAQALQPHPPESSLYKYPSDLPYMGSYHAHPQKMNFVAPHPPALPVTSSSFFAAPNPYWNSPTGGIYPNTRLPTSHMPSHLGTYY

Row | Sequence | binding signal
1 | GTGGCG | 0.855
2 | AACCGT | 0.52
3 | GGCGCT | 0.709
4 | GGACTG | 0.691
5 | TTCGGA | 0.715
6 | TTAGAC | 0.841
7 | TCGTAG | 0.841
8 | ACAGTA | 0.847
9 | GGAAGG | 0.931
10 | GGCAAG | 0.682
11 | GCATGG | 0.934
12 | CACGGT | 0.86
13 | ACGGGG | 0.672
14 | AGTCAC | 0.846
15 | GGTTGC | 0.927
16 | GGGTGG | 0.769
17 | CCAGAC | 0.686
18 | CGGAAT | 0.955
19 | GCAAGG | 0.778
20 | CGGGGG | 0.5

Row | Sequence | binding signal
21 | AGAGTT | 0.761
22 | GGCGGC | 0.597
23 | GGGAAT | 0.828
24 | ACAGGT | 0.739
25 | AGGCCG | 0.506
26 | GACGGA | 0.542
27 | GGGGAG | 0.436
28 | TCGGAT | 0.542
29 | AGAGGA | 0.685
30 | GAGGTT | 0.754
31 | GACTAG | 0.688
32 | CAGTCC | 0.664
33 | CCATGT | 0.768
34 | GTCATA | 0.837
35 | GTCAGC | 0.702
36 | TTGAGT | 0.641
37 | AAGAGC | 0.825
38 | GACCCT | 0.839
39 | ACGAGT | 0.686

These sequences were tested against ELF1 (UniProt P32519) in the same assay as above. Conditions: 10 mM Tris-HCl pH 7.5, 50 mM NaCl, 1 mM DTT, 4% glycerol, room temperature, 30 min; GST-TFs on glutathione beads, 16-mer random dsDNA library, 0.1% …; high values mean tight binding; double strand, one strand shown; scale: fold enrichment (6-mer frequency, TF over GST control).

Row | Sequence | binding signal
40 | GTGGCG | 0.77
41 | AACCGT | 0.511
42 | GGCGCT | 0.762
43 | GGACTG | 0.764
44 | TTCGGA | 0.767
45 | TTAGAC | 0.838
46 | TCGTAG | 0.84
47 | ACAGTA | 0.922
48 | GGAAGG | 0.79
49 | GGCAAG | 0.708
50 | GCATGG | 0.821
51 | CACGGT | 0.956
52 | ACGGGG | 0.672
53 | AGTCAC | 0.768
54 | GGTTGC | 0.902
55 | GGGTGG | 0.829
56 | CCAGAC | 0.668
57 | CGGAAT | 0.874
58 | GCAAGG | 0.775
59 | CGGGGG | 0.461

Row | Sequence | binding signal
60 | AGAGTT | 0.772
61 | GGCGGC | 0.593
62 | GGGAAT | 0.839
63 | ACAGGT | 0.734
64 | AGGCCG | 0.454
65 | GACGGA | 0.477
66 | GGGGAG | 0.416
67 | TCGGAT | 0.518
68 | AGAGGA | 0.652
69 | GAGGTT | 0.788
70 | GACTAG | 0.715
71 | CAGTCC | 0.672
72 | CCATGT | 0.805
73 | GTCATA | 0.772
74 | GTCAGC | 0.703
75 | TTGAGT | 0.754
76 | AAGAGC | 0.897
77 | GACCCT | 0.888
78 | ACGAGT | 0.786

Each sequence was assayed against T2, ELK4 (UniProt P28324-2) in the same assay as above. Conditions: 10 mM Tris-HCl pH 7.5, 50 mM NaCl, 1 mM DTT, 4% glycerol, room temperature, 30 min; GST-TFs on glutathione beads, 16-mer random dsDNA library, 0.1% …; high values mean tight binding; double strand, one strand shown; scale: fold enrichment (6-mer frequency, TF over GST control).
T2 sequence: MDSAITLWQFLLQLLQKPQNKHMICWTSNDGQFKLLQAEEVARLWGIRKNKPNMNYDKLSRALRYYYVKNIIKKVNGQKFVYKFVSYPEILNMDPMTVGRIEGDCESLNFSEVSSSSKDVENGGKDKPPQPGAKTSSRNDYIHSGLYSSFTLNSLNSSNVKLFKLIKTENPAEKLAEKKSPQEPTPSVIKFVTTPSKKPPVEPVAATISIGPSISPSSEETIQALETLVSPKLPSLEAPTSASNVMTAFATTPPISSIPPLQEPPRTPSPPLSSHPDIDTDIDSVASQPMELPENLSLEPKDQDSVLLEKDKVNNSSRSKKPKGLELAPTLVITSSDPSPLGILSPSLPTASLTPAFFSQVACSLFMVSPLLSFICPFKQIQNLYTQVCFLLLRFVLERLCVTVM

Row | Sequence | binding signal
79 | GTGGCG | 0.919
80 | AACCGT | 0.479
81 | GGCGCT | 0.792
82 | GGACTG | 0.747
83 | TTCGGA | 0.82
84 | TTAGAC | 0.908
85 | TCGTAG | 0.926
86 | ACAGTA | 0.894
87 | GGAAGG | 0.783
88 | GGCAAG | 0.727
89 | GCATGG | 0.888
90 | CACGGT | 0.817
91 | ACGGGG | 0.67
92 | AGTCAC | 0.769
93 | GGTTGC | 0.989
94 | GGGTGG | 0.845
95 | CCAGAC | 0.663
96 | CGGAAT | 0.896
97 | GCAAGG | 0.901
98 | CGGGGG | 0.487

Row | Sequence | binding signal
99 | AGAGTT | 0.718
100 | GGCGGC | 0.561
101 | GGGAAT | 0.774
102 | ACAGGT | 0.837
103 | AGGCCG | 0.442
104 | GACGGA | 0.458
105 | GGGGAG | 0.434
106 | TCGGAT | 0.541
107 | AGAGGA | 0.59
108 | GAGGTT | 0.95
109 | GACTAG | 0.793
110 | CAGTCC | 0.651
111 | CCATGT | 0.995
112 | GTCATA | 0.8
113 | GTCAGC | 0.748
114 | TTGAGT | 0.689
115 | AAGAGC | 0.765
116 | GACCCT | 0.797
117 | ACGAGT | 0.765
